Results as given in patent US8748460B2, “Iminosugars and methods of treating togaviral diseases” (priority 2009, dated 2014).
Some results were stated once for a whole list of compounds, not compound by compound. At least one compound was matched to its structure with a doubt left.

Experiments:
[1] = system: Rift Valley Fever Virus (Bunyavirus) MP12 strain; assay type: cell-based; settings: read-out: EC50, RVFV MP12 virus inhibition
[2] = system: Chikungunya (Togaviridae) 181/25 strain; assay type: cell-based; settings: read-out: EC50, Chikungunya virus inhibition
[3] = system: Venezuelan Equine Encephalitis (Togaviridae) TC-83 strain; assay type: cell-based, Venezuelan equine encephalitis virus; settings: read-out: EC50, VEE virus inhibition

Compound	EC50 [1] [µM]	EC50 [2] [µM]	EC50 [3] [µM]
CCCCN1C[C@H](O)[C@@H](O)[C@H](O)[C@H]1CO [UV-1, N-Butyl deoxynojirimycin]	> 250	> 500	
CCCOCCCCCCN1C[C@H](O)[C@@H](O)[C@H](O)[C@H]1CO [UV-3, N-(7-Oxadecyl)deoxynojirimycin]		> 500	> 250
COCCCCCCCCCN1C[C@H](O)[C@@H](O)[C@H](O)[C@H]1CO [UV-4, N-(9-Methoxynonyl)deoxynojirimycin]	> 250	> 500	> 250
